Test results from article PMC11724075, “Small-molecule-induced ERBB4 activation to treat heart failure” (Nature Communications, 2025).

By UniProt entry, the sequences of proteins in these tests, tags left out. Residues count along the entry.
UniProt Q15303, 26-1308 limits assumed: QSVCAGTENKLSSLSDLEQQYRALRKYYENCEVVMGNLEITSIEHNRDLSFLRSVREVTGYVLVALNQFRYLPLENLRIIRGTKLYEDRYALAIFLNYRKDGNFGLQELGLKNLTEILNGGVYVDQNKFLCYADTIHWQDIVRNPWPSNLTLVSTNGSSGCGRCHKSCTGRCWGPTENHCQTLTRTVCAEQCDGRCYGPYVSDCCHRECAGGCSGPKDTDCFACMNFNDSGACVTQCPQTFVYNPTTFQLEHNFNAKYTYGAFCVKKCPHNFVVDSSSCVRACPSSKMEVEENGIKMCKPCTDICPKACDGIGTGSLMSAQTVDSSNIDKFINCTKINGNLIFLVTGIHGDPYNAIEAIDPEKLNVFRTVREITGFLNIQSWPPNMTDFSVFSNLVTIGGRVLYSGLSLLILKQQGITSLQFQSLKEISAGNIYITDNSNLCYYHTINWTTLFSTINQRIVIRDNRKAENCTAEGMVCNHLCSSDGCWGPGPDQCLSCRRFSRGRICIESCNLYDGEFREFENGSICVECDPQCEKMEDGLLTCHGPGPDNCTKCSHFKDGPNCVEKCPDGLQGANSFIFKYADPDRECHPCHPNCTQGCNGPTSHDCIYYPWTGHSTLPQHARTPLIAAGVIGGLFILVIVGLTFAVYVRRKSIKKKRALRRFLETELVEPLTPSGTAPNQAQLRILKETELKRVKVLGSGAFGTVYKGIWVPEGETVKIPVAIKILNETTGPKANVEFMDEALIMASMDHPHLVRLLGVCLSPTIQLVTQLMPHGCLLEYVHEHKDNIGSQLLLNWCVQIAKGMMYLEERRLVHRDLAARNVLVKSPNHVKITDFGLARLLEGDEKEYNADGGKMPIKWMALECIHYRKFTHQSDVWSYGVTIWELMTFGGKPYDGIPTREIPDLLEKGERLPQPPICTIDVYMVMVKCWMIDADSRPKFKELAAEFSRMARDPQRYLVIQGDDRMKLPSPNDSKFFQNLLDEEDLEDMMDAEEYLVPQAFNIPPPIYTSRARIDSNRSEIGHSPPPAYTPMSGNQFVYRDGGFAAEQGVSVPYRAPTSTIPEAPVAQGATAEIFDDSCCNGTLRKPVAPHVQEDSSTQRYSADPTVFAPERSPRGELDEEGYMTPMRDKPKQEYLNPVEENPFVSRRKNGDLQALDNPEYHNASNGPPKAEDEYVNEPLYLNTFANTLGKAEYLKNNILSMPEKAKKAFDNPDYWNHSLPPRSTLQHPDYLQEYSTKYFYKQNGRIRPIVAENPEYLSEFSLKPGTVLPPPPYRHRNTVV

Legend:
ERBB4/ERBB4 = ERBB4/ERBB4 (Homo sapiens, UniProt Q15303); test: NRG1 dose-response in ERBB4/ERBB4 dimerization assay with co-administration of EF-1
mouse model of MI [1] = test: Mouse model of MI, histology: CSA, capillaries, interstitial fibrosis, scar size; conditions: MI experiment, MI/EF-1
Experimental: (§1) Twelve-week-old female and male Balb/cJ (Charles River, 000651) mice were randomized into either the ctrl or MI group. Mice in the MI group underwent surgical ligation of the LAD, while mice in the ctrl group underwent a sham procedure (n = 8 female mice, n = 10 male mice). Briefly, all mice received an injection of 0.1 mg/kg buprenorphine (Produlab Pharma) before induction of anesthesia with 8% sevoflurane (Zoetis). Anesthesia was maintained with 4.5% sevoflurane and mice were intubated and ventilated. An incision of 15 mm was made on the left side of the thorax and the thoracic cavity was opened at the third intercostal space using blunt forceps. The LAD was permanently ligated with a 8/0 polypropylene monofilament sutures (Ethicon, F1894) after which the thoracic cavity and skin were closed with 6/0 polypropylene monofilament sutures (Ethicon, F1841). and 5/0 polyamide 6 sutures (Ethilon, F2412H), respectively. Mice received another dose of 0.1 mg/kg buprenorphine 6–8 h after the initial dose. Two days after surgery, cardiac ultrasound was performed to exclude mice without successful MI (i.e. displaying hypokinesia in ≥2 out of 5 segments). Mice with successful MI were randomized into 2 groups: an MI/EF-1 group (n = 9 female mice, n = 10 male mice) and an MI/Veh group (n = 8 female mice, n = 12 male mice). Seven days after MI surgery, the mice were equipped with osmotic mini-pumps containing either EF-1 (2 mg/kg/day) or Veh, as described above. Cardiac ultrasound was performed weekly. After 4 weeks of treatment, mice were euthanized, and hearts were collected.
Hearts were fixed in 4% PFA, paraffin-embedded, and cut into 5-µm sections. Images were acquired with an Olympus BX43 microscope (Olympus Stream Motion Software) or a CELENA® S Digital Imaging System and analyzed with ImageJ 2.14.0 software. Collagen distribution was visualized by Masson’s trichrome staining. Cardiac total fibrosis was expressed as the ratio of positively stained fibrotic area (blue) to the total area and perivascular fibrosis as the ratio of fibrotic area to vascular lumen area. Scar size was determined by measuring the scar length over the […]. Hypertrophy and vascularisation were visualized via an isolectin-B4/WGA/DAPI staining. Quantification was performed by a person blinded to the treatment protocol.

mouse model of MI [2] = test: Mouse model of MI (LAD ligation), echocardiography; design: left-ventricular end-diastolic volume / left-ventricular end-systolic volume: unit not given here
Experimental: as §1
Echocardiography was performed using the Vevo F2-LAZRX (FUJIFILM VisualSonics) and UHF57x probe. Mice were anesthetized with 1.5% isoflurane (Alvira, BE-V512222). Parasternal long-axis B-mode images and M-mode images were obtained and analyzed using VevoLAB software (FUJIFILM VisualSonics, Version 5.7.1). For the AngII experiments, measurements were obtained through analysis of the short-axis M-mode. For the MI experiments, measurements were obtained through analysis of the parasternal long-axis B-mode, of which the area and end-volume of the left ventricular cavity in diastole and systole were determined by tracing the endocardial border. Acquisitions, measurements and analyses were performed blinded.
Supplementary Table 2. Echocardiographic parameters. […]
Echocardiographic parameters obtained through left ventricular trace analysis of the parasternal long-axis obtained in B-mode in female wild-type mice that underwent a sham or MI operation: mice with […]
the MI were treated with Veh or EF-1 (n=8 female mice in Ctrl and MI/Veh group and n=9 female mice […]
in MI/EF-1 group). (g) Echocardiographic parameters obtained through left ventricular trace analysis of the parasternal long-axis obtained in B-mode in male wild-type mice that underwent a sham or MI […]
operation: mice with the MI were treated with Veh or EF-1 (n=5 male mice in Ctrl and MI/EF-1 group […]
and n=6 male mice in MI/Veh group for T0 and T3; n=10 male mice in Ctrl and MI/EF-1 group and n=12 […]
male mice in MI/Veh group for T2 and T4). Echocardiographic parameters were measured weekly (indicated by ‘T’). All data are presented as mean (value of individual mice) ± SD, two-tailed unpaired […]
1 groups. Source data are provided as a Source Data file. AngII, angiotensin II; ANOVA, analysis of variance; Ctrl, control; DOX, doxorubicin; EF, ejection fraction; ERBB4, erythroblastic leukemia viral oncogene homolog 4; FS, fractional shortening; IVSd, interventricular septum thickness in diastole; IVSs, interventricular septum thickness in systole; LVIDd, left ventricular internal diameter in diastole; LVIDs, left ventricular internal diameter in systole; LVPWd, left ventricular posterior wall thickness in diastole; LVPWs, left ventricular posterior wall thickness in systole; MI, myocardial infarction; NA, non-activating pharmacophore-containing compound; SD, standard variation; Veh, vehicle.

[3] = female mice, MI/EF-1, 0 weeks after MI
[4] = female mice, MI/EF-1, 2 weeks after MI
[5] = female mice, MI/EF-1, 3 weeks after MI
[6] = female mice, MI/EF-1, 4 weeks after MI

O=C(NC1CC1)C(Sc1nc2ccccc2c(=O)n1C1CCCC1)c1ccccc1 (stereo not shown) [EF-1]
Chemiluminescence-based competition assay with NRG1 and EF-1, signal (ERBB4/ERBB4; EF-1 1 µM, NRG1 3e-11 M): 5.692, 4.638, 7.724
Chemiluminescence-based competition assay with NRG1 and EF-1, signal (ERBB4/ERBB4; EF-1 1 µM, NRG1 1e-10 M): 15.2907, 5.393, 13.1212
Chemiluminescence-based competition assay with NRG1 and EF-1, signal (ERBB4/ERBB4; EF-1 1 µM, NRG1 3e-10 M): 15.1436, 6.566, 15.7973
Chemiluminescence-based competition assay with NRG1 and EF-1, signal (ERBB4/ERBB4; EF-1 1 µM, NRG1 1e-9 M): 25.6403, 6.583, 41.6472, 54.5286, 23.2908, 11.3267
Chemiluminescence-based competition assay with NRG1 and EF-1, signal (ERBB4/ERBB4; EF-1 1 µM, NRG1 3e-9 M): 25.0517, 6.668, 43.6805, 44.6281, 28.2121, 13.0951
Chemiluminescence-based competition assay with NRG1 and EF-1, signal (ERBB4/ERBB4; EF-1 1 µM, NRG1 1e-8 M): 66.7686 and 16.7656
Chemiluminescence-based competition assay with NRG1 and EF-1, signal (ERBB4/ERBB4; EF-1 1 µM, NRG1 3e-8 M): 70.7908, 36.1271, 136.734
Chemiluminescence-based competition assay with NRG1 and EF-1, signal (ERBB4/ERBB4; EF-1 1 µM, NRG1 1e-7 M): 71.9189 and 81.4323
Chemiluminescence-based competition assay with NRG1 and EF-1, signal (ERBB4/ERBB4; EF-1 10 µM, NRG1 3e-11 M): 35.72, 23.3366, 72.3411, 72.0383, 38.3484
Chemiluminescence-based competition assay with NRG1 and EF-1, signal (ERBB4/ERBB4; EF-1 10 µM, NRG1 1e-10 M): 40.5514, 28.7737, 77.3197, 74.4709, 49.9159
Chemiluminescence-based competition assay with NRG1 and EF-1, signal (ERBB4/ERBB4; EF-1 10 µM, NRG1 3e-10 M): 47.4675, 32.2491, 71.474, 71.4584, 57.1084
Chemiluminescence-based competition assay with NRG1 and EF-1, signal (ERBB4/ERBB4; EF-1 10 µM, NRG1 1e-9 M): 57.768 and 35.7302
Chemiluminescence-based competition assay with NRG1 and EF-1, signal (ERBB4/ERBB4; EF-1 10 µM, NRG1 3e-9 M): 58.1113, 36.4275, 106.384
Chemiluminescence-based competition assay with NRG1 and EF-1, signal (ERBB4/ERBB4; EF-1 10 µM, NRG1 1e-8 M): 104.954 and 52.8578
Chemiluminescence-based competition assay with NRG1 and EF-1, signal (ERBB4/ERBB4; EF-1 10 µM, NRG1 3e-8 M): 90.9503 and 94.0753
Chemiluminescence-based competition assay with NRG1 and EF-1, signal (ERBB4/ERBB4; EF-1 32 µM, NRG1 1e-10 M): 58.5037, 27.362, 72.5355
Chemiluminescence-based competition assay with NRG1 and EF-1, signal (ERBB4/ERBB4; EF-1 32 µM, NRG1 3e-9 M): 93.7707, 39.3984, 80.8481
Chemiluminescence-based competition assay with NRG1 and EF-1, signal (ERBB4/ERBB4; EF-1 32 µM, NRG1 1e-8 M): 60.3416 and 74.7482
scar size (mouse model of MI [1]; female mice): 0.5651, 0.1876, 0.5268, 0.5015, 0.4073, 0.1392, 0.2913
capillary density (#cap./100 CMs) (mouse model of MI [1]; male mice): 197.943 #cap./100 CMs, 186.963 #cap./100 CMs, 191.856 #cap./100 CMs, 207.355 #cap./100 CMs, 187.043 #cap./100 CMs, 194.913 #cap./100 CMs, 170.533 #cap./100 CMs, 203.32 #cap./100 CMs, 201.604 #cap./100 CMs
capillary density (#cap./area) (mouse model of MI [1]; male mice): 4.5427, 3.8306, 4.232, 4.202, 3.113, 3.634, 3.389, 4.326, 3.992, 4.588 #cap./area
scar size (mouse model of MI [1]; male mice): 0.4695, 0.6871, 0.5279, 0.6132, 0.3511, 0.7867, 0.4775, 0.5059
ejection fraction (mouse model of MI [2]; [3]): 33.0877, 50.5573, 54.0984, 31.1777, 37.2522, 48.5332, 47.3543, 44.4856, 37.896
left-ventricular end-diastolic volume (mouse model of MI [2]; [3]): 58.8001, 54.9123, 55.7638, 60.8114, 66.2701, 52.1758, 60.1413, 47.5633, 54.1349
ejection fraction (mouse model of MI [2]; [4]): 45.1557, 43.4466, 25.4376, 22.6843, 35.9648, 36.135, 6.615, 23.3879, 7.577
left-ventricular end-diastolic volume (mouse model of MI [2]; [4]): 64.076, 72.9718, 78.1864, 64.442, 85.7705, 59.9084, 83.8099, 77.9265, 75.4936
left-ventricular end-systolic volume (mouse model of MI [2]; [4]): 35.142, 41.2681, 58.2977, 49.8237, 54.9233, 38.2605, 78.2661, 59.7011, 69.7734
ejection fraction (mouse model of MI [2]; [5]): 33.3567, 47.2434, 28.4489, 39.4528, 50.1808, 15.2547, 14.3049, 30.9326, 30.6095
left-ventricular end-systolic volume (mouse model of MI [2]; [5]): 40.3267, 25.8483, 74.6131, 34.5752, 33.9853, 94.0317, 89.3367, 58.8762, 57.7933
ejection fraction (mouse model of MI [2]; [6]): 52.3808, 37.7496, 24.961, 30.8316, 37.6415, 33.8986, 21.3873, 36.615, 29.73
left-ventricular end-diastolic volume (mouse model of MI [2]; [6]): 64.4166, 73.1454, 83.8732, 57.7855, 48.3682, 88.9757, 96.0389, 68.2596, 99.1762
left-ventricular end-systolic volume (mouse model of MI [2]; [6]): 30.6746, 45.5333, 62.9376, 39.9693, 30.1617, 58.8142, 75.4988, 43.2664, 69.6911
ejection fraction (mouse model of MI [2]; male mice, MI/EF-1, 2 weeks after MI): 32.5616, 21.1246, 8.7356, 36.3357, 37.8712, 27.3585, 37.9267, 7.0431, 12.98, 9.851
ejection fraction (mouse model of MI [2]; male mice, MI/EF-1, 4 weeks after MI): 37.0676, 14.516, 18.3224, 35.5301, 6.862, 23.6561, 37.959, 12.2588, 31.7278, 33.988

A number of entries come with more than one value. This is not the full list of results. An entry can have further records. For some of these results: Values given together appear to be repeats (runs, samples, wells or individuals). For some of these results: Values that stand side by side appear to be repeats (runs, samples, wells or individuals); one of them may be the mean.
